Measurements published in paper PMC8420766, “Crystal structure of a MarR family protein from the psychrophilic bacterium Paenisporosarcina sp. TG-14 in complex with a lipid-like molecule” (IUCrJ, 2021).

Biological target: T1, PaMarR (Paenisporosarcina sp. TG-14) (UniProt A0A8J9SKQ8)
T1 sequence (looked up, limits assumed): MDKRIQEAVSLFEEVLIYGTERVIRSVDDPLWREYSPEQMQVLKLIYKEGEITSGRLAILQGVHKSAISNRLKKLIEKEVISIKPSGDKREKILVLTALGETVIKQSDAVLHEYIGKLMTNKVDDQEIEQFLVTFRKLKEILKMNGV
Assay: EMSA
Settings: randomization significantly disrupted binding, protein contains palmitate; EMSA: Dulbecco's PBS, 12% (v/v) glycerol, 0.5 uM duplex, 15 min at 37 C, 20 ul; 8% native PAGE with 5% glycerol in Tris-borate; pH not stated; recombinant protein; label: none (GelRed stain)

## TGTCACTAATGCACTCCATAGACGACCATCAGTAGTCTAGTAGATTAGATAGTCTACCCCCTAG / ACTATCTAATCTACTAGACTACTGATGGTCGTCTATGGAGTGCATTAGTGACA [Non-specific palindrome probe (randomized)]
  binding result: binds more weakly

For at least one entry, the source does not settle the construct or the ends of the probe. A weaker result is weaker than the reference pair of the same experiment. Where a protein sequence is shown, tags need not be part of it.
